Assay results reported in article doi:10.1101/2024.12.02.626147.
Results are given in words; binding and its absence hold for the method and conditions named. In cells and extracts the contact can be indirect. Some results given as binding are weak or reduced against the parent protein; the word gives no strength.

The chains behind the UniProt entries cited, without tags or fusion partners.
UniProt Q61188: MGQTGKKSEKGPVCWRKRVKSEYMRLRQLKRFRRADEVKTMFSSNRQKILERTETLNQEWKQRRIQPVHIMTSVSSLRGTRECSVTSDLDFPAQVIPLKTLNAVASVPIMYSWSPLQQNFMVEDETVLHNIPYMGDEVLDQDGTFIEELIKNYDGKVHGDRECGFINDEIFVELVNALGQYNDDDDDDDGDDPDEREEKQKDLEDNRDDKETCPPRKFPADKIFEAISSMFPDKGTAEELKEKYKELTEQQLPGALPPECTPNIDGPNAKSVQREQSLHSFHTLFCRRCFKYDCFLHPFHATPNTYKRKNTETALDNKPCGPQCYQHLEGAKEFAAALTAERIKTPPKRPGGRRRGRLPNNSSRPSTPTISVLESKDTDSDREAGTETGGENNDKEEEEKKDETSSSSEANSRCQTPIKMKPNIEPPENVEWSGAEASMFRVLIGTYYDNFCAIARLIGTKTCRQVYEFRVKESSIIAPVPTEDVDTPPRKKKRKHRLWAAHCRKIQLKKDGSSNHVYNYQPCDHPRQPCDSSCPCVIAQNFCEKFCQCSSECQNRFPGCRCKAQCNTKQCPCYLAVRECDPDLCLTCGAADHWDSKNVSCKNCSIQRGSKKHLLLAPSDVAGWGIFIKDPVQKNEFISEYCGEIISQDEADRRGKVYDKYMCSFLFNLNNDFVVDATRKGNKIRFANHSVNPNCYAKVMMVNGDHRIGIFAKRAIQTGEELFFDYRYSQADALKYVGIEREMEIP

Biological target: T1, Nanog (mouse (endogenous in E14Tg2a)) (UniProt Q80Z64)
T1 sequence: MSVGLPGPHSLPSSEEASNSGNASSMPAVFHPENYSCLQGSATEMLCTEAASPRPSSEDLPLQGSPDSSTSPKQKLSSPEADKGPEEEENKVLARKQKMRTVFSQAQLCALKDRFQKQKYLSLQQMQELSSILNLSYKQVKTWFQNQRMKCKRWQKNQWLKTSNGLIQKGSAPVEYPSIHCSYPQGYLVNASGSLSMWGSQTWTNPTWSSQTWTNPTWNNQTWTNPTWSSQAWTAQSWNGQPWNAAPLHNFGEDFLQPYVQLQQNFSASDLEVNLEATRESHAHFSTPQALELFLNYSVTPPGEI
Experiment: co-IP

binding: binds
Substance: Ezh2 (from UniProt Q61188 1-746)
